According to US20110159003A1 (DOMANTIS, published 2011):
Results are given in words; binding and its absence hold for the method and conditions named. Some results given as binding are weak or reduced against the parent protein; the word gives no strength.

By UniProt entry, the sequences of proteins in these tests, tags left out. Residues count along the entry.
UniProt P35225, residues 35-146: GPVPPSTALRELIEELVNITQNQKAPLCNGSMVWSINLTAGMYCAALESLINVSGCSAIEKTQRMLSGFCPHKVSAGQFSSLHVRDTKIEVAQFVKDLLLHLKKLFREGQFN

Molecular target: T1, human IL-13 (human, UniProt P35225 35-146, limits assumed, biotinylated on the Biacore chip)
T1 construct: also called interleukin-13; biotinylated IL-13
Assay: IL-13 Biacore (SPR)

- binding: binds
B1: DOM9-112-210 ASTKGPS-DOM10-416 (bispecific antibody)
chain: EVQLLESGGGLVQPGGSLRLSCAASGFTFRNFGMGWVRQAPGKGLEWVSWIISSGTETYYADSVKGRFTISRDNSKNTLYLQMNSLRAEDTAVYYCAKSLGRFDYWGQGTLVTVSSASTKGPSEVQLLESGGGLVQPGGSLRLSCAASGFTFKGSEMDWVRQAPGKGLEWVSTISADGRETYYADSVKGRFTISRDNSKNTLYLQMNSLRAEDTAVYYCAKSYTSFDYWGQGTLVTVSS
